Data reported in patent US20250176599A1, “FLAVOR COMPOSITION AND FOOD AND BEVERAGE” (TAKASAGO INTERNATIONAL CORPORATION, priority 2021, published 2025).

Key:
[1] = Sensory evaluation of aqueous solution IV containing 1,5-octadien-3-one 100 ppt: off-flavor intensity and masking component intensity; settings: aqueous solution IV, 1,5-octadien-3-one 100 ppt, average score 0-4
Method: (§1) In ion-exchanged water, each degradation component was added to achieve the concentrations listed in Table 1, and aqueous solutions I to VI containing these degradation components were prepared.
(§2) For the aforementioned aqueous solutions containing degradation components, nootkatone was added at the concentrations listed in Table 2 to confirm the intensity of the off-flavor (masking effect) in each sample and the intensity of the masking component itself (the impact on the flavor of the food and/or beverage itself).
(§3) The test was conducted as follows. Eight experienced panelists were selected to conduct a sensory evaluation. The intensity of the off-flavor of the aqueous solution containing the degradation components derived from unsaturated fatty acids, without added masking components, was set as “Evaluation: 4.” The ion-exchanged water free of any degradation components was set as “Evaluation: 0.” The intensity of the off-flavor (masking effect) of each sample was then relatively evaluated according to the following evaluation criteria.
(§4) • Off-flavor is strongly sensed: 4 points • Off-flavor is sensed: 3 points • Off-flavor is slightly sensed: 2 points • Off-flavor is barely sensed: 1 point • Off-flavor is not sensed at all: 0 points
(§5) Also, the intensity of the masking components (impact on the flavor of the food and/or beverage itself) was absolutely evaluated according to the following evaluation criteria.
(§6) • Masking component is strongly sensed: 4 points • Masking component is sensed: 3 points • Masking component is slightly sensed: 2 points • Masking component is barely sensed: 1 point • Masking component is not sensed at all: 0 points

[2] = Sensory evaluation of aqueous solution V containing 1-octen-3-ol 10 ppb: off-flavor intensity and masking component intensity; settings: average score 0-4
Method: as §1, §2, §3, §4, §5, §6

[3] = Sensory evaluation of aqueous solution I containing (E)-2-nonenal 1 ppb: off-flavor intensity and masking component intensity; settings: average score 0-4
Method: as §1, §2, §3, §4, §5, §6

[4] = Sensory evaluation of aqueous solution II containing (E)-2-octenal 10 ppb: off-flavor intensity and masking component intensity; settings: average score 0-4
Method: as §1, §2, §3, §4, §5, §6

## C=CC(C)(CCC=C(C)C)OC(=O)CCC (stereo not drawn) [Linalyl Butyrate, linalyl butyrate]
[1]; 1 ppb added
  Masking Component Intensity: 1.0 points
[1]; 1 ppm added
  Masking Component Intensity: 3.0 points
[1]; 5 ppm added
  Masking Component Intensity: 3.8 points
[1]; 10 ppb added
  Masking Component Intensity: 1.6 points
[1]; 10 ppt added
  Masking Component Intensity: 0.5 points
[1]; 50 ppb added
  Masking Component Intensity: 1.8 points
[1]; 100 ppb added
  Masking Component Intensity: 1.8 points
[1]; 100 ppt added
  Masking Component Intensity: 0.8 points
[1]; 500 ppb added
  Masking Component Intensity: 2.8 points
[2]; 1 ppb added
  Masking Component Intensity: 1.0 points
[2]; 1 ppm added
  Masking Component Intensity: 3.3 points
[2]; 5 ppm added
  Masking Component Intensity: 3.9 points
[2]; 10 ppb added
  Masking Component Intensity: 1.5 points
[2]; 10 ppt added
  Masking Component Intensity: 0.4 points
[2]; 50 ppb added
  Masking Component Intensity: 1.9 points
[2]; 100 ppb added
  Masking Component Intensity: 2.4 points
[2]; 100 ppt added
  Masking Component Intensity: 0.5 points
[2]; 500 ppb added
  Masking Component Intensity: 3.0 points
[3]; 1 ppb added
  Masking Component Intensity: 1.0 points
[3]; 1 ppm added
  Masking Component Intensity: 3.3 points
[3]; 5 ppm added
  Masking Component Intensity: 3.8 points
[3]; 10 ppb added
  Masking Component Intensity: 1.4 points
[3]; 10 ppt added
  Masking Component Intensity: 0.3 points
[3]; 50 ppb added
  Masking Component Intensity: 1.6 points
[3]; 100 ppb added
  Masking Component Intensity: 2.0 points
[3]; 100 ppt added
  Masking Component Intensity: 0.9 points
[3]; 500 ppb added
  Masking Component Intensity: 2.8 points
[4]; 1 ppb added
  Masking Component Intensity: 1.5 points
[4]; 1 ppm added
  Masking Component Intensity: 3.5 points
[4]; 5 ppm added
  Masking Component Intensity: 4.0 points
[4]; 10 ppb added
  Masking Component Intensity: 1.8 points
[4]; 10 ppt added
  Masking Component Intensity: 0.8 points
[4]; 50 ppb added
  Masking Component Intensity: 2.3 points
[4]; 100 ppb added
  Masking Component Intensity: 2.5 points
[4]; 100 ppt added
  Masking Component Intensity: 1.3 points
[4]; 500 ppb added
  Masking Component Intensity: 3.4 points

## C=C(C)[C@@H]1CCC2=CC(=O)C[C@@H](C)[C@]2(C)C1 [Nootkatone, nootkatone]
[1]; 1 ppb added
  Masking Component Intensity: 0.4 points
[1]; 1 ppm added
  Masking Component Intensity: 2.5 points
[1]; 5 ppm added
  Masking Component Intensity: 3.6 points
[1]; 10 ppb added
  Masking Component Intensity: 0.9 points
[1]; 10 ppm added
  Masking Component Intensity: 4.0 points
[1]; 10 ppt added
  Masking Component Intensity: 0.1 points
[1]; 100 ppb added
  Masking Component Intensity: 1.6 points
[1]; 100 ppt added
  Masking Component Intensity: 0.3 points
[2]; 1 ppb added
  Masking Component Intensity: 0.4 points
[2]; 1 ppm added
  Masking Component Intensity: 2.5 points
[2]; 5 ppm added
  Masking Component Intensity: 3.3 points
[2]; 10 ppb added
  Masking Component Intensity: 1.3 points
[2]; 10 ppm added
  Masking Component Intensity: 3.9 points
[2]; 10 ppt added
  Masking Component Intensity: 0.3 points
[2]; 100 ppb added
  Masking Component Intensity: 1.5 points
[2]; 100 ppt added
  Masking Component Intensity: 0.3 points
[3]; 1 ppb added
  Masking Component Intensity: 0.9 points
[3]; 1 ppm added
  Masking Component Intensity: 2.9 points
[3]; 5 ppm added
  Masking Component Intensity: 3.4 points
[3]; 10 ppb added
  Masking Component Intensity: 1.1 points
[3]; 10 ppm added
  Masking Component Intensity: 3.8 points
[3]; 10 ppt added
  Masking Component Intensity: 0.3 points
[3]; 100 ppb added
  Masking Component Intensity: 1.6 points
[3]; 100 ppt added
  Masking Component Intensity: 0.3 points
[4]; 1 ppb added
  Masking Component Intensity: 0.9 points
[4]; 1 ppm added
  Masking Component Intensity: 2.6 points
[4]; 5 ppm added
  Masking Component Intensity: 3.8 points
[4]; 10 ppb added
  Masking Component Intensity: 1.1 points
[4]; 10 ppm added
  Masking Component Intensity: 4.0 points
[4]; 10 ppt added
  Masking Component Intensity: 0.4 points
[4]; 100 ppb added
  Masking Component Intensity: 1.5 points
[4]; 100 ppt added
  Masking Component Intensity: 0.5 points

## CCCCCCCC/C=C\CCCCCCCC(=O)O [Oleic Acid, oleic acid]
[1]; 1 ppm added
  Masking Component Intensity: 1.8 points
[1]; 5 ppm added
  Masking Component Intensity: 2.0 points
[1]; 10 ppb added
  Masking Component Intensity: 0.1 points
[1]; 10 ppm added
  Masking Component Intensity: 2.8 points
[1]; 50 ppb added
  Masking Component Intensity: 0.5 points
[1]; 100 ppb added
  Masking Component Intensity: 0.6 points
[1]; 500 ppb added
  Masking Component Intensity: 1.0 points
[2]; 1 ppm added
  Masking Component Intensity: 2.4 points
[2]; 5 ppm added
  Masking Component Intensity: 3.3 points
[2]; 10 ppb added
  Masking Component Intensity: 0.5 points
[2]; 10 ppm added
  Masking Component Intensity: 3.9 points
[2]; 50 ppb added
  Masking Component Intensity: 0.8 points
[2]; 100 ppb added
  Masking Component Intensity: 1.4 points
[2]; 500 ppb added
  Masking Component Intensity: 1.5 points
[3]; 1 ppm added
  Masking Component Intensity: 2.3 points
[3]; 5 ppm added
  Masking Component Intensity: 2.9 points
[3]; 10 ppb added
  Masking Component Intensity: 0.8 points
[3]; 10 ppm added
  Masking Component Intensity: 3.9 points
[3]; 50 ppb added
  Masking Component Intensity: 1.1 points
[3]; 100 ppb added
  Masking Component Intensity: 1.6 points
[3]; 500 ppb added
  Masking Component Intensity: 1.9 points
[4]; 1 ppm added
  Masking Component Intensity: 2.3 points
[4]; 5 ppm added
  Masking Component Intensity: 3.1 points
[4]; 10 ppb added
  Masking Component Intensity: 0.6 points
[4]; 10 ppm added
  Masking Component Intensity: 3.5 points
[4]; 50 ppb added
  Masking Component Intensity: 0.9 points
[4]; 100 ppb added
  Masking Component Intensity: 1.3 points
[4]; 500 ppb added
  Masking Component Intensity: 1.5 points
